# Values from PubChem BioAssay AID493246 (Drosophila RNAi Screening Center, 2011)
# Aim: 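Genes fly cells need to grow and stay alive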 (primary screen)
# System: Drosophila Kc and S2R+ cells
# Reagents: long dsRNA against Drosophila genes
# Measured: 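Cell number per well after knock-down, printed as raw plate values; calls were based on per-plate z-scores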
# Reading the numbers: Kc cell number and S2R+ cell number: higher = more cells remaining
# Call rule: 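Active when the per-plate z-score of cell number is 3 or more in the direction of fewer cells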
# The screen tested about 21,000 reagents; shown is a random part of those that have a named target and a result. In the full data, 429 (2%) are marked active. 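Values are raw and not normalised between plates; calls rest on per-plate z-scores that were not deposited.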 The numbers tell different reagents against one gene apart. A plus sign joins genes that one reagent is predicted to hit. No sequences are given here. Not stated in the record: the amount of reagent, the time to read-out.
Target gene,reagent no.,"Kc cell number, rep 1","Kc cell number, rep 2","S2R+ cell number, rep 1","S2R+ cell number, rep 2",call
CG10089 (GeneID 39517),1,1.57e6,1.63e6,1.19e6,1.31e6,inactive
CG10089 (GeneID 39517),2,1.63e6,1.67e6,1.47e6,1.59e6,inactive
CG14893 (GeneID 42023),1,1.61e6,1.59e6,1.29e6,1.49e6,inactive
CG15027 (GeneID 32440),1,1.52e6,1.55e6,1.14e6,1.33e6,inactive
pdm2 (GeneID 34673),1,1.56e6,1.60e6,1.16e6,1.30e6,inactive
pdm2 (GeneID 34673),2,1.55e6,1.56e6,1.10e6,1.24e6,inactive
pdm2 (GeneID 34673),3,1.41e6,1.51e6,1.23e6,1.38e6,inactive
CG31404 (GeneID 318714),1,1.35e6,1.32e6,1.05e6,1.10e6,inactive
CG6652 (GeneID 39905),1,1.43e6,1.51e6,1.17e6,1.25e6,inactive
CG12289 (GeneID 39279),1,1.27e6,1.38e6,1.29e6,1.36e6,inactive
CG33090 (GeneID 34835),1,1.33e6,1.32e6,1.26e6,1.32e6,inactive
edl (GeneID 37149),1,1.40e6,1.42e6,1.21e6,1.29e6,inactive
Gr22f (GeneID 117349),1,1.56e6,1.56e6,1.08e6,1.24e6,inactive
CG5756 (GeneID 37064),1,1.52e6,1.65e6,1.25e6,1.43e6,inactive
Keap1 (GeneID 42062),1,1.55e6,1.69e6,1.22e6,1.33e6,inactive
CG3735 (GeneID 37803),1,1.25e6,1.39e6,1.11e6,1.14e6,inactive
CG11294 (GeneID 31807),1,1.33e6,1.31e6,9.17e5,1.04e6,inactive
CG32445 (GeneID 261603),1,1.48e6,1.57e6,1.04e6,1.14e6,inactive
CG12862 (GeneID 36625),1,1.57e6,1.52e6,1.16e6,1.26e6,inactive
stnB + stnA,1,1.48e6,1.53e6,1.03e6,1.17e6,inactive
stnB + stnA,2,1.40e6,1.46e6,1.06e6,1.14e6,inactive
CG7492 (GeneID 38859),1,1.42e6,1.57e6,1.25e6,9.46e5,inactive
CG8777 (GeneID 35921),1,1.35e6,1.40e6,1.10e6,1.11e6,inactive
smog (GeneID 33690),1,1.60e6,1.41e6,1.08e6,1.27e6,inactive
smog (GeneID 33690),2,1.65e6,1.50e6,8.94e5,1.03e6,inactive
PolG1 (GeneID 34792),1,1.69e6,1.83e6,1.24e6,1.42e6,inactive
CG10650 (GeneID 35162),1,1.28e6,1.36e6,1.22e6,1.26e6,inactive
CG4949 (GeneID 32691),1,1.73e6,1.77e6,1.03e6,1.17e6,inactive
CG3587 (GeneID 31160),1,1.65e6,1.88e6,1.10e6,1.28e6,inactive
CG31957 (GeneID 319046),1,1.44e6,1.50e6,1.04e6,1.15e6,inactive
Gnptab (GeneID 35943),1,1.53e6,1.63e6,1.41e6,1.49e6,inactive
CG14354 (GeneID 43120),1,1.52e6,1.56e6,8.51e5,9.27e5,inactive
Ir62a (GeneID 3885628),1,1.44e6,1.26e6,9.60e5,1.24e6,inactive
CSN1b (GeneID 40063),1,1.37e6,1.42e6,9.43e5,1.03e6,inactive
gro (GeneID 43162),1,5.74e5,,7.77e5,,inactive
Cyp12a5 (GeneID 42293),1,1.39e6,1.48e6,1.01e6,1.12e6,inactive
CG13250 (GeneID 40284),1,1.30e6,1.54e6,1.27e6,1.29e6,inactive
Top3beta (GeneID 31565),1,5.88e5,,8.21e5,,inactive
l(3)72Dr (GeneID 39778),1,1.33e6,1.42e6,1.29e6,1.43e6,inactive
CG11911 (GeneID 33206),1,1.32e6,1.38e6,1.01e6,1.09e6,inactive
NT5E-2 (GeneID 246458),1,1.24e6,1.32e6,1.08e6,1.12e6,inactive
CG6304 (GeneID 35032),1,1.24e6,1.30e6,1.31e6,1.47e6,inactive
Mpv17 (GeneID 43831),1,1.51e6,1.55e6,1.10e6,1.24e6,inactive
CG14143 (GeneID 39256),1,1.21e6,1.24e6,1.26e6,1.31e6,inactive
dpn (GeneID 35800),1,1.51e6,1.57e6,1.22e6,1.36e6,inactive
retm (GeneID 33899),1,1.31e6,1.35e6,7.71e5,9.40e5,inactive
CG12849 (GeneID 37971),1,1.73e6,1.71e6,1.34e6,1.31e6,inactive
l(2)27Cb (retired record) (GeneID 48760),1,1.48e6,1.35e6,8.86e5,1.05e6,inactive
CG4789 (GeneID 32668),1,1.48e6,1.48e6,1.03e6,1.12e6,inactive
tll (GeneID 43656),1,1.44e6,1.47e6,1.04e6,1.09e6,inactive
Grip (GeneID 50391),1,6.60e5,8.63e5,6.91e5,8.01e5,active
Grip (GeneID 50391),2,1.51e6,1.48e6,1.02e6,1.17e6,inactive
CG5676 (GeneID 34368),1,1.52e6,1.57e6,1.23e6,1.32e6,inactive
Efr (GeneID 31553),1,1.54e6,1.57e6,1.13e6,1.22e6,inactive
rdog (GeneID 43450),1,4.88e5,,8.14e5,,inactive
CG11906 (GeneID 37209),1,1.74e6,1.78e6,1.37e6,1.55e6,inactive
mmd (GeneID 32561),1,1.75e6,1.81e6,1.04e6,1.20e6,inactive
mmd (GeneID 32561),2,1.66e6,1.72e6,1.11e6,1.24e6,inactive
mmd (GeneID 32561),3,1.61e6,1.60e6,1.10e6,1.24e6,inactive
